One test concerns the target FBW7α-Myc(tag) (UniProt Q969H0). Put plainly: co-IP; HEK293T cells co-transfected with the plasmids (PEI), MG132 20 μM (6 h in the legends, 4 h in the methods); lysis in 50 mM Tris-HCl pH 7.4, 1 mM EDTA, 1% Triton X-100, 150 mM NaCl; Anti-Flag or Anti-Myc magnetic beads, 4 °C, 4-6 h; Western blot; in the competitive IPs with or without a third overexpressed protein. For orientation: Immunoblotting shows a protein as a band on a membrane.

Amino acid sequences for entries named in this document (tags omitted). A change or cut given only in a name is not applied to a line headed by its entry. Chains listed by the source or under a name are the forms on record and can include a tag or linker.
UniProt Q969H0: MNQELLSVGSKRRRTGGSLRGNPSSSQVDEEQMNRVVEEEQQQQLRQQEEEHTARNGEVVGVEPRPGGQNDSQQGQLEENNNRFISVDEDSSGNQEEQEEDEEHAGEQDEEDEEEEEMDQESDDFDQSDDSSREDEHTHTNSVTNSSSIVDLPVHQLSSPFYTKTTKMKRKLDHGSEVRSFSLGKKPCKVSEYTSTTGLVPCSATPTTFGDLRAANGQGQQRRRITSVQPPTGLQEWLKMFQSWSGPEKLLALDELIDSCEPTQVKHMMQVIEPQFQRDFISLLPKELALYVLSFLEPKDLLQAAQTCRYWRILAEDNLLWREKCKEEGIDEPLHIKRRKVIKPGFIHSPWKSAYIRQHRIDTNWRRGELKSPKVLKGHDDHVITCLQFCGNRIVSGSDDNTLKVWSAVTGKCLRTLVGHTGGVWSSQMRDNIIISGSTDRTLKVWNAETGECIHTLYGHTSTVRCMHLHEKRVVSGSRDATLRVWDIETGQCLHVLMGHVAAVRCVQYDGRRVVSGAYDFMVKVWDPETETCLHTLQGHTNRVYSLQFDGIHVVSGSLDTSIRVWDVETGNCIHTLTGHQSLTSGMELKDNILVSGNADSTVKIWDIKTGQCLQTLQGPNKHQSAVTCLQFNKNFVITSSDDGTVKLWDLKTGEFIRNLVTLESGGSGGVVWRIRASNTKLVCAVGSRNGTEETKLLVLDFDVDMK
FBW7β-Myc(tag) (Q969H0, form named): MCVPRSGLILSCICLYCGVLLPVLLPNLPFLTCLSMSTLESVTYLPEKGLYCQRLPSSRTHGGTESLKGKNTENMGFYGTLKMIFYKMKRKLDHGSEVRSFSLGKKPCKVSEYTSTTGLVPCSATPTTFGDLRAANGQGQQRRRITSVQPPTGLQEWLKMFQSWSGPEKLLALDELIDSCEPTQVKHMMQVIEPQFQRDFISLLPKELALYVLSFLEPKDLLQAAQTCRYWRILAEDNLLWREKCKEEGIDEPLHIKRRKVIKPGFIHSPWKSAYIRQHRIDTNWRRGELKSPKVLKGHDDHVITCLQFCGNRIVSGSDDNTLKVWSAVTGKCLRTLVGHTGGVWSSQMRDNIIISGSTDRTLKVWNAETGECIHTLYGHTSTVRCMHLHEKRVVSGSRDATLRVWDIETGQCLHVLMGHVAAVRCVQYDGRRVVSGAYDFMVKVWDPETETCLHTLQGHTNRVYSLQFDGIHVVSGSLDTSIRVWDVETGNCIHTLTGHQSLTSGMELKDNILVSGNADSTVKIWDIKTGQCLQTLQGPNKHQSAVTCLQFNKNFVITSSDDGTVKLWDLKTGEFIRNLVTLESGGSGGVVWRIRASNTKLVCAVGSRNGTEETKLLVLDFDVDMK
UniProt P01106: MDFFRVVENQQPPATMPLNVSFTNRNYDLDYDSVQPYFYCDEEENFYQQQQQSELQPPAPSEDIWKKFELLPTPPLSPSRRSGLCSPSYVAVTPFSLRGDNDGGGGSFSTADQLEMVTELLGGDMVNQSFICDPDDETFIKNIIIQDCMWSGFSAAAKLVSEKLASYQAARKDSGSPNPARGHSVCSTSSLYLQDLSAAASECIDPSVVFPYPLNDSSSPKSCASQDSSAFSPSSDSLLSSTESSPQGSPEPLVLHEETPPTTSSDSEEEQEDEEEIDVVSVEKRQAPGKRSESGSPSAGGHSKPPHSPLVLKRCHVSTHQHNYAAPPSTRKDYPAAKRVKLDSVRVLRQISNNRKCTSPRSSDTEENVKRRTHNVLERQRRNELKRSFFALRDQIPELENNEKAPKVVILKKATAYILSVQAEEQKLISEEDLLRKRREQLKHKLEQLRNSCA

The target in a further test is FBW7β-Myc(tag) (UniProt Q969H0). Described as above.

These are yes or no findings as the source states them, for the method shown. In cells and extracts the contact can be indirect. Some entries that bind do so weakly or less than the wild type.

For “3×Flag-c-Myc (from UniProt P01106 1-454)”, the binding result with FBW7α-Myc(tag) and in the test with FBW7β-Myc(tag) was “binds” in each case. For the substance “c-Myc (notag) (from UniProt P01106 1-454)”, in the test with FBW7α-Myc(tag), the binding entry is “binds”.

These data come from paper PMC12238259.
